# Reference: publication PMC7291584
# Protein sequences, listed by entry. Tags and fused reporters are not part of them.
# UniProt Q14676: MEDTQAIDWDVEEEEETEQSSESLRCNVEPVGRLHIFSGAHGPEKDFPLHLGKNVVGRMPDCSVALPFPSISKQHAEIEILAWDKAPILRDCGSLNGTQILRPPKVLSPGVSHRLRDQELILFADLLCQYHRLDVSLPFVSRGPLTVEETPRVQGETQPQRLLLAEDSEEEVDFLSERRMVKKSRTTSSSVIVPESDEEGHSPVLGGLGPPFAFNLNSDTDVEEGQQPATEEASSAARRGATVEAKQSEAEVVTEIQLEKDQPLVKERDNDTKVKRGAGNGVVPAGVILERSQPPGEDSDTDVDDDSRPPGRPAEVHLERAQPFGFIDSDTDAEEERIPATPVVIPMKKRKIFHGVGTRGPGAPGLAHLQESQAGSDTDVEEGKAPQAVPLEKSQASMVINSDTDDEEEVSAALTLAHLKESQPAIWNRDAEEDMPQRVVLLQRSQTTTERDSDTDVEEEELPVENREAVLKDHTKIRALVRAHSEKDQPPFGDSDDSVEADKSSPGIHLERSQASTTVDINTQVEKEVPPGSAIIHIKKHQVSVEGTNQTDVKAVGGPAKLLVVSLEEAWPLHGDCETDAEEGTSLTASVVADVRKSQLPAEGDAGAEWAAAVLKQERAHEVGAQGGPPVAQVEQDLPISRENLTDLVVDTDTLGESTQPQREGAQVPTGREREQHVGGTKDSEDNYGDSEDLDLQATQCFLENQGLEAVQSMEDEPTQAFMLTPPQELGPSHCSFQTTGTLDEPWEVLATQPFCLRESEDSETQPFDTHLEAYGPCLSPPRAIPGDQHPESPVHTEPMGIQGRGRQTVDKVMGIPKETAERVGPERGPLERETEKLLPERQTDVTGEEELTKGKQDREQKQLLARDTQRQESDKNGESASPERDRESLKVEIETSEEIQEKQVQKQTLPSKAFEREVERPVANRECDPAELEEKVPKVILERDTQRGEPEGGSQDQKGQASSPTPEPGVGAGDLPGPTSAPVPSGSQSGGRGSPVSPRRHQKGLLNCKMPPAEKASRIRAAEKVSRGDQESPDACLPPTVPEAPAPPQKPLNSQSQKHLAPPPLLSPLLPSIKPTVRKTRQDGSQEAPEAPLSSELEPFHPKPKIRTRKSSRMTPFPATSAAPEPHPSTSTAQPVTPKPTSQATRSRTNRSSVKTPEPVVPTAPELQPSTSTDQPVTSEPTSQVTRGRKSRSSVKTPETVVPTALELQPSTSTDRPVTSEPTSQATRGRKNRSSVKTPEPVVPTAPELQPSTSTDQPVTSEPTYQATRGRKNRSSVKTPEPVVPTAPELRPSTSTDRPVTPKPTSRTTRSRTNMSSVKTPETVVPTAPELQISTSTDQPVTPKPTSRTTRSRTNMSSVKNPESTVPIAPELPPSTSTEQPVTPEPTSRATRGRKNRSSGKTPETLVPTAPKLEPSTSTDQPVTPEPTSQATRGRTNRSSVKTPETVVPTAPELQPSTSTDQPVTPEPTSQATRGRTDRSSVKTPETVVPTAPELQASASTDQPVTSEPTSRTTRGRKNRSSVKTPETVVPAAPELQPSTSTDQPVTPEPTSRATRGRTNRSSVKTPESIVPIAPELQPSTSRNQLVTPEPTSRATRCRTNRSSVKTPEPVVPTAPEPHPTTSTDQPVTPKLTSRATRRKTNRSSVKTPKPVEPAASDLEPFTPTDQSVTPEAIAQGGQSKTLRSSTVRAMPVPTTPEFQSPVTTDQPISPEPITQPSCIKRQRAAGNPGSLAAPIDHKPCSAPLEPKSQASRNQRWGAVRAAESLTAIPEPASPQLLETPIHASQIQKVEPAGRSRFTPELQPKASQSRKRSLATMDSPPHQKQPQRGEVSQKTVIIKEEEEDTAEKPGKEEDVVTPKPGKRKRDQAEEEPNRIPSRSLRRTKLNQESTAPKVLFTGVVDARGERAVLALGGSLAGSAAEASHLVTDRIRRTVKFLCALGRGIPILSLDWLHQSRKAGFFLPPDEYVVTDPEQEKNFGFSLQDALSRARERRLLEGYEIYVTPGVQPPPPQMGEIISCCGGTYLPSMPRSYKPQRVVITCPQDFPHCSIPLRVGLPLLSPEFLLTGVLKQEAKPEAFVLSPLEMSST
# Results are given in words; binding and its absence hold for the method and conditions named. In cells and extracts the contact can be indirect. Some binding calls cover weakened binding; strength is not graded here.
# Legend:
# [1] = molecular target: T1, Inhibitor of differentiation 4 (ID4) (human (endogenous in HCC70, MDA-MB-468, HCC1954, OVKATE and patient-derived xenografts)) (UniProt P47928); assay: proximity ligation; Duolink PLA with mouse/rabbit probes on fixed cells (MDA-MB-468, HCC70, OVKATE), confocal imaging, dots per cell; controls ID4:V5, ID4:FLAG and siMDC1
# T1 sequence: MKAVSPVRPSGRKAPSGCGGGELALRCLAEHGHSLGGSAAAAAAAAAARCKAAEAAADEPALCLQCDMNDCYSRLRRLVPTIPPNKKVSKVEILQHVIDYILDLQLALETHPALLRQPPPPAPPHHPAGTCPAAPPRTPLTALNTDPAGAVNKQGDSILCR
# [2] = molecular target: T1, Inhibitor of differentiation 4 (ID4) (human (endogenous in HCC70, MDA-MB-468, HCC1954, OVKATE and patient-derived xenografts)); assay: co-IP; MDA-MB-468 cells prepared using the RIME protocol (cross-linked); IP with anti-ID4 or anti-MDC1 antibodies on Protein A/G magnetic beads against IgG; western blotting with independent monoclonal MDC1 or ID4 antibody
substance,measurement,setting,value
mediator of DNA damage checkpoint 1 (MDC1) (from UniProt Q14676 1-2089),binding,[1],binds
same,binding,[2],binds
